Measurements reported in PubChem BioAssay AID1259254 (NCATS, 2017)
Shown is a random part of about 59,000 deposited reagents. Of all reagents, about 1,550 (2.6%) were called active. 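G2 share is only a proxy for re-replication; each gene was hit by three separate siRNAs, and active genes were retested.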 The raw values are shown without normalisation. A number with no mark means an inactive call. Reagents against one gene are numbered here. Not stated in the record: the amount of reagent.

Assay: 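Gene knock-downs that lead to re-replication, shown by excess G2 DNA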 (primary screen)
System: human HCT116 colorectal cancer cells
Reagent: single siRNA against human genes
Timing: 3 days
Read-out: 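Imaged Hoechst DNA stain sorts each cell into a cycle phase by DNA amount; per plate, G2 fraction set to 0% for non-targeting and 100% for GMNN siRNA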
Scale: G2 robust z-score and G2 cells, % of GMNN control: higher = more G2 cells, more excess DNA replication; raw share of cells in G2: higher = larger share of cells with G2 DNA content
Active means: 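Active siRNAs have a G2 robust z of 5 or more median absolute deviations over the median, which in these data means about 38% or higher of GMNN control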

| target gene | reagent | G2 robust z-score | G2 cells, % of GMNN control | raw share of cells in G2 (%) |
| --- | --- | --- | --- | --- |
| SLC9A7 | 1 | -1.27 | -5.95 | 2.58 |
| SLC9A7 | 2 | -1.52 | -7.74 | 1.39 |
| SLC9A7 | 3 | -0.606 | -1.3 | 4.89 |
| RGS20 | 1 | -0.185 | 1.67 | 5.29 |
| RGS20 | 2 | 2.12 | 17.9 | 11.5 |
| RGS20 | 3 | 0.793 | 8.55 | 7.77 |
| HDAC1 | 1 | -0.485 | -0.444 | 4.04 |
| HDAC1 | 2 | 5.84 (active) | 44.1 | 21.1 |
| HDAC1 | 3 | 1.94 | 16.6 | 12 |
| EIF2A | 1 | -0.0626 | 2.53 | 4.95 |
| EIF2A | 2 | 0.446 | 6.1 | 5.27 |
| EIF2A | 3 | -1.22 | -5.64 | 0.695 |
| RTP5 | 1 | 0.257 | 4.78 | 5.38 |
| RTP5 | 2 | 0.0992 | 3.67 | 4.46 |
| RTP5 | 3 | 0.72 | 8.03 | 5.71 |
| KRT32 | 1 | 0.409 | 5.85 | 6.35 |
| KRT32 | 2 | 0.0691 | 3.45 | 6.3 |
| KRT32 | 3 | -0.145 | 1.95 | 6.42 |
| INPPL1 | 1 | -1.17 | -5.24 | 3.09 |
| INPPL1 | 2 | 5.24 (active) | 39.8 | 16.3 |
| INPPL1 | 3 | 3.13 | 25 | 11 |
| HSDL2 | 1 | 0.258 | 4.78 | 7.42 |
| HSDL2 | 2 | -0.824 | -2.83 | 3.17 |
| HSDL2 | 3 | -0.276 | 1.03 | 5.17 |
| NLE1 | 1 | -0.707 | -2.01 | 2.88 |
| NLE1 | 2 | -0.32 | 0.716 | 4.57 |
| NLE1 | 3 | 1.1 | 10.7 | 6.73 |
| TCF3 | 1 | 4.36 | 33.6 | 17.5 |
| TCF3 | 2 | 2.57 | 21 | 12.2 |
| TCF3 | 3 | -0.797 | -2.64 | 3.27 |
| SERINC2 | 1 | -0.684 | -1.85 | 3.35 |
| SERINC2 | 2 | 0.842 | 8.89 | 7.15 |
| SERINC2 | 3 | 4.89 | 37.4 | 19.2 |
| OR10A5 | 1 | 0.793 | 8.55 | 6.69 |
| OR10A5 | 2 | 2.77 | 22.5 | 9.85 |
| OR10A5 | 3 | 0.506 | 6.52 | 5.34 |
| KLHL7 | 1 | 0.258 | 4.78 | 6.33 |
| KLHL7 | 2 | 2.13 | 17.9 | 14.3 |
| KLHL7 | 3 | -1.34 | -6.45 | 2.13 |
| ADGRB3 | 1 | -0.769 | -2.44 | 4.97 |
| ADGRB3 | 2 | 2.24 | 18.7 | 11.1 |
| ADGRB3 | 3 | 2.61 | 21.3 | 9.81 |
| ACADSB | 1 | -1.44 | -7.13 | 2.54 |
| ACADSB | 2 | -0.318 | 0.732 | 4.97 |
| ACADSB | 3 | 2.7 | 22 | 12.2 |
| NLRP5 | 1 | 0.68 | 7.75 | 7.1 |
| NLRP5 | 2 | -0.972 | -3.87 | 1.87 |
| NLRP5 | 3 | -0.694 | -1.92 | 1.88 |

Part of the list above, reformatted.
{"target gene":"ADGRB3","reagent":1,"G2 robust z-score":-0.769,"G2 cells, % of GMNN control":-2.44,"raw share of cells in G2 (%)":4.97}
{"target gene":"ADGRB3","reagent":2,"G2 robust z-score":2.24,"G2 cells, % of GMNN control":18.7,"raw share of cells in G2 (%)":11.1}
{"target gene":"ADGRB3","reagent":3,"G2 robust z-score":2.61,"G2 cells, % of GMNN control":21.3,"raw share of cells in G2 (%)":9.81}
{"target gene":"ACADSB","reagent":1,"G2 robust z-score":-1.44,"G2 cells, % of GMNN control":-7.13,"raw share of cells in G2 (%)":2.54}
{"target gene":"ACADSB","reagent":2,"G2 robust z-score":-0.318,"G2 cells, % of GMNN control":0.732,"raw share of cells in G2 (%)":4.97}
{"target gene":"ACADSB","reagent":3,"G2 robust z-score":2.7,"G2 cells, % of GMNN control":22,"raw share of cells in G2 (%)":12.2}
